Data published in article doi:10.1101/2025.04.11.648407.
Where two headings read alike, the source gives them in different places. No constants are given. Whether binding was seen depends on the method and setting. Binding seen in cells or lysates may run through a third protein. Some results given as binding are weak or reduced against the parent protein; the word gives no strength. For some of these results: Sequences can lack the tags named with a protein.

Sequences of proteins named here, by UniProt entry; tags and fusion partners are left off. Residues count along the entry.
UniProt Q15465, residues 24-462: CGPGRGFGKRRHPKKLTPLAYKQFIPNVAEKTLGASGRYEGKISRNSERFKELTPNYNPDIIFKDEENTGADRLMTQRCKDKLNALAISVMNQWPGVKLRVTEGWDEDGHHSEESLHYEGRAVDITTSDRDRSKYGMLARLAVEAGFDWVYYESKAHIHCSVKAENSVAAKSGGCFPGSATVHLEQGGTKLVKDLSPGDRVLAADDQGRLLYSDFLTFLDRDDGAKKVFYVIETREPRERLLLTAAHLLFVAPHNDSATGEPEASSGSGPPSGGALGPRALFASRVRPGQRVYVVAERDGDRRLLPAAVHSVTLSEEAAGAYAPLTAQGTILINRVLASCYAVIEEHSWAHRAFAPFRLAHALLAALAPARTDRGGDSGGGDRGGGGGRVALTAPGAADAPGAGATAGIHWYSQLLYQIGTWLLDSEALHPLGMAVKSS
UniProt P04406: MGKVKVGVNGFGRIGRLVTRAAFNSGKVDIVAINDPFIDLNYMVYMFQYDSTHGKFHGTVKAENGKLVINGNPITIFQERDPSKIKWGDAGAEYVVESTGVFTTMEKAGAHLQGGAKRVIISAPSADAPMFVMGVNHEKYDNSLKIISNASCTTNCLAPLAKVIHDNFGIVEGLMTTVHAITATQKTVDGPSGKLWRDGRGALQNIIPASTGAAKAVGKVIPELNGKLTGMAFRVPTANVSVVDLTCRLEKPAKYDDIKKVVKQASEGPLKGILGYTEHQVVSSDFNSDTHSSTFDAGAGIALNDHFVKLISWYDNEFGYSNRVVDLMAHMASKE
UniProt P11717, residues 41-2491: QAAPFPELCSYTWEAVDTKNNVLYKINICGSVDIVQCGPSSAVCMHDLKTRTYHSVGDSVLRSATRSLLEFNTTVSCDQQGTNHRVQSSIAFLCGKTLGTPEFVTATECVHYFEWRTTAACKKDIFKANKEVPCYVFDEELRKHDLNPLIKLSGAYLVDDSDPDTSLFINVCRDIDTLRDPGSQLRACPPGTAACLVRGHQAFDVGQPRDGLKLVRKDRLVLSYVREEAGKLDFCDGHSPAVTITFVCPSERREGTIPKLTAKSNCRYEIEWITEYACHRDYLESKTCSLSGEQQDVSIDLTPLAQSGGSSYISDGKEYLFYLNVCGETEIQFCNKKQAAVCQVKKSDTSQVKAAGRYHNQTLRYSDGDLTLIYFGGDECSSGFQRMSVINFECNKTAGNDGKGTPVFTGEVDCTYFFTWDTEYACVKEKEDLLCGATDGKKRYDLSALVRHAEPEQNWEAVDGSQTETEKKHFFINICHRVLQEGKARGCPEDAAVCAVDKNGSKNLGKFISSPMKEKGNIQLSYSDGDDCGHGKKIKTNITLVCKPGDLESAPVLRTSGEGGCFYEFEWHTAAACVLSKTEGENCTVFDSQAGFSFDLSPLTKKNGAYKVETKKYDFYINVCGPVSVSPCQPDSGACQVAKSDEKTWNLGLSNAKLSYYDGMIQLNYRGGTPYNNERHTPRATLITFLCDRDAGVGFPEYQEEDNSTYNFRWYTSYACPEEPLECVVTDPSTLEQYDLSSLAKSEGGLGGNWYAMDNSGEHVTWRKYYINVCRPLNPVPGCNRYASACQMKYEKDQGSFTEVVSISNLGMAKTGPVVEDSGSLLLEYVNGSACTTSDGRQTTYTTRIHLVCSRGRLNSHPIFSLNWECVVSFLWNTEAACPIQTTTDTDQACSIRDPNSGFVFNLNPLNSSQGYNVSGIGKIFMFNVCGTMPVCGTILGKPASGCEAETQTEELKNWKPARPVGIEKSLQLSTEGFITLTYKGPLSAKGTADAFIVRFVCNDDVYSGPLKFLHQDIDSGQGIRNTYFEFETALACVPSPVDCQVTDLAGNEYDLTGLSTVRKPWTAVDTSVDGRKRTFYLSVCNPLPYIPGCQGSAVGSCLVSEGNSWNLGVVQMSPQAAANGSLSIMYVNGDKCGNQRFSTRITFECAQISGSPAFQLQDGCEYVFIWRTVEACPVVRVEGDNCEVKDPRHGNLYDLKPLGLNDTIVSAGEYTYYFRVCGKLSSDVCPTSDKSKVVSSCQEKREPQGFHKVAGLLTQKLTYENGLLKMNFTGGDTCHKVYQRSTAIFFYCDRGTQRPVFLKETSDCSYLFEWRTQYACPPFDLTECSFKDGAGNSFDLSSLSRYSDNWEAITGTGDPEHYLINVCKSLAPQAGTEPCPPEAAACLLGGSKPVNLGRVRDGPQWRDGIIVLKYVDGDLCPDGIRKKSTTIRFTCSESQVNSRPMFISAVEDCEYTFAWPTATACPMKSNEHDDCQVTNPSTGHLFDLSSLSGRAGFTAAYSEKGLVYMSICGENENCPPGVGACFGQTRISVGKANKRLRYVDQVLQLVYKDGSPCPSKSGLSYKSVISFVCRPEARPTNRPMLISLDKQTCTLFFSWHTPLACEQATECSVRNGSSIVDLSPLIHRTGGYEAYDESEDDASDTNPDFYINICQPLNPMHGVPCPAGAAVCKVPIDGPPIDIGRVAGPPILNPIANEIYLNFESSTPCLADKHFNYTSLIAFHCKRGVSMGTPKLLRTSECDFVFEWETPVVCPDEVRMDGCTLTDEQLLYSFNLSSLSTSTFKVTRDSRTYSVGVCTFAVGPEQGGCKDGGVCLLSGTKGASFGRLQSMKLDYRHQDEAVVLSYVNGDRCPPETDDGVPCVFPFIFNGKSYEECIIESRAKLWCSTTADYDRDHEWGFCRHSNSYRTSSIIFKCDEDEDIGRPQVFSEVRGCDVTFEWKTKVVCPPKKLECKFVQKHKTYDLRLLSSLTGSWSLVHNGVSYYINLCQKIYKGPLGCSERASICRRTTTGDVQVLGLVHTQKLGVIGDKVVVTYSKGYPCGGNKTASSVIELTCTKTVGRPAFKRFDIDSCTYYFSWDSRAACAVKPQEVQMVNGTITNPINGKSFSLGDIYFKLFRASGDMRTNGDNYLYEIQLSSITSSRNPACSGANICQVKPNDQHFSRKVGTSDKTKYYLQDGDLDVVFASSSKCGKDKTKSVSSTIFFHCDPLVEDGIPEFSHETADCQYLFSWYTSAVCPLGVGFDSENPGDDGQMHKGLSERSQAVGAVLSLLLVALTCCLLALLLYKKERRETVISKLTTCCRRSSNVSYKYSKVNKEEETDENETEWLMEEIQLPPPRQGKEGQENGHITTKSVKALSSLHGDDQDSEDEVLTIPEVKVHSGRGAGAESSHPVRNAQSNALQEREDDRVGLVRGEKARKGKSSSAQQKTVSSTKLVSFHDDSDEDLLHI
UniProt Q9Y678: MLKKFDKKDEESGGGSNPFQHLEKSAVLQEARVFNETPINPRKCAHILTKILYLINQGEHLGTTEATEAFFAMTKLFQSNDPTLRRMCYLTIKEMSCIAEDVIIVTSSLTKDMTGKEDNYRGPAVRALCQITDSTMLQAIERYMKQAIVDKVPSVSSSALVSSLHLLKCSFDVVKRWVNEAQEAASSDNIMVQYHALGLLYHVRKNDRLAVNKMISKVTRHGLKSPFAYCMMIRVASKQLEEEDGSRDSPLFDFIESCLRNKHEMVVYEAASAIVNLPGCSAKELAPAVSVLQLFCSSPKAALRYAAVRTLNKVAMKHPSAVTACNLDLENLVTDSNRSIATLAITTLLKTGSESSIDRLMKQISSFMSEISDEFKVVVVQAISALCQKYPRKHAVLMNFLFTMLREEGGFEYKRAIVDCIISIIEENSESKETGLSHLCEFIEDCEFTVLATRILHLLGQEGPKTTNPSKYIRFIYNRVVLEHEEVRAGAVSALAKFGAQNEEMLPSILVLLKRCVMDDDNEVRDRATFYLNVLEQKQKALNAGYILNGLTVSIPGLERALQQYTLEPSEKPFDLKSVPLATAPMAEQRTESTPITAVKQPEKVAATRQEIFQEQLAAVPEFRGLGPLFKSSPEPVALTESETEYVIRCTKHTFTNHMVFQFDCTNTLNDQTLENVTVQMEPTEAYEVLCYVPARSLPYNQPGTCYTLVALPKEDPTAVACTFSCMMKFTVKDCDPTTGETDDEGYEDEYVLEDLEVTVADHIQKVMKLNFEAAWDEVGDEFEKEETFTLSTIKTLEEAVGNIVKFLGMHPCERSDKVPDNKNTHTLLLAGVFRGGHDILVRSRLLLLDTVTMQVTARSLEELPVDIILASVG
UniProt P53618: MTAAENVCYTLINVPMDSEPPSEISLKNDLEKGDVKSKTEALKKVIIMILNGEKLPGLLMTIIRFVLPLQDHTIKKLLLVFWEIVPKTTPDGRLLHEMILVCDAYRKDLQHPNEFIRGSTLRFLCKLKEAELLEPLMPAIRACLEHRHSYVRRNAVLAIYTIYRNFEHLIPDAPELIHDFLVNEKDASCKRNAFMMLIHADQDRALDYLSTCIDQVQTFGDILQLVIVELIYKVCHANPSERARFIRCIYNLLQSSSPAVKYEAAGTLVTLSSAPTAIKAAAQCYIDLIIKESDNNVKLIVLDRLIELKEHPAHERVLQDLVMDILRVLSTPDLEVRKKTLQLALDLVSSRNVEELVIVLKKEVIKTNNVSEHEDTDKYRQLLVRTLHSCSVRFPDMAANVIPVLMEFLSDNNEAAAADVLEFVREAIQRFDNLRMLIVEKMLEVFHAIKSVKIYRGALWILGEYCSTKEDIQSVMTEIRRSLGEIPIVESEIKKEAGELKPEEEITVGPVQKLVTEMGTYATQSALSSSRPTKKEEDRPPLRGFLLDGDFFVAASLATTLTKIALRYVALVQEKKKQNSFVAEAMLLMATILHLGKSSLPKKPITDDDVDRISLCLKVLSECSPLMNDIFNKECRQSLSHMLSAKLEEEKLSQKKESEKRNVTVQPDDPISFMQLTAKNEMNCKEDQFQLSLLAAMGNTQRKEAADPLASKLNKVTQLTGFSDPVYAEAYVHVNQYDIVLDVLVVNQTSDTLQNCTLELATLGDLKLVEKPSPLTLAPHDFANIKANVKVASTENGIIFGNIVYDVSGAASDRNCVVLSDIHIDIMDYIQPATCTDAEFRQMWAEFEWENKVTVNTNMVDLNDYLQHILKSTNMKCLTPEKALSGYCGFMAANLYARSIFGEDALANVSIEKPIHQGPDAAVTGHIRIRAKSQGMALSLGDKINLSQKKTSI

Tests used:
[1] = molecular target: T1, LEPROTL1-HA (human) (UniProt O95214); assay: co-IP
T1 sequence: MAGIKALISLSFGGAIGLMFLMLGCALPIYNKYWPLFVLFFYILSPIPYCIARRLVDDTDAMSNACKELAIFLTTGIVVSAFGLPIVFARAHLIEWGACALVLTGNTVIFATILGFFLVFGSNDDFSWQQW

[2] = molecular target: T2, LEPROTL1 R90H (human) (UniProt O95214); assay: co-IP
T2 sequence: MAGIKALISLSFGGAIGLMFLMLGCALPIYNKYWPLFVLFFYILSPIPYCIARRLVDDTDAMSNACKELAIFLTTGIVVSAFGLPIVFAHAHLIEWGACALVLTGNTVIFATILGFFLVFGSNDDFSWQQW

[3] = molecular target: T1, LEPROTL1-HA (human); assay: co-IP; remark: listed apart in the source
[4] = molecular target: T2, LEPROTL1 R90H (human); assay: co-IP; remark: listed apart in the source
[5] = molecular target: T1, LEPROTL1-HA (human); assay: co-IP; remark: listed apart in the source
[6] = molecular target: T3, GST-tagged COPD (human) (UniProt P48444); assay: pull-down
T3 sequence: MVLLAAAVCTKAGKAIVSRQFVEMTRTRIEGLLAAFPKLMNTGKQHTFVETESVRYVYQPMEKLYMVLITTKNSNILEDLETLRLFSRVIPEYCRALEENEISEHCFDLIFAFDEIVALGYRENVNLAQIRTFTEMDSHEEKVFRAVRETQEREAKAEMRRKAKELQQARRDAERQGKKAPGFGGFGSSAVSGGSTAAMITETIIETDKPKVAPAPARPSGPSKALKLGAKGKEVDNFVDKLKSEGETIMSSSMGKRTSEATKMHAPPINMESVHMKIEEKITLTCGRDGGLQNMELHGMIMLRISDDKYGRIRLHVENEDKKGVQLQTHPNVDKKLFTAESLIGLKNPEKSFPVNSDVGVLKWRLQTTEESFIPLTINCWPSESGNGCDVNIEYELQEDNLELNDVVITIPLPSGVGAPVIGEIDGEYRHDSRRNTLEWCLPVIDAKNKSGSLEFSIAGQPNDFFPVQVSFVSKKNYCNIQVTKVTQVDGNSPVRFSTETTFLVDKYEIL

[7] = molecular target: T3, GST-tagged COPD (human); assay: pull-down; remark: listed apart in the source
[8] = molecular target: T3, GST-tagged COPD (human); assay: pull-down; remark: listed apart in the source
[9] = molecular target: T3, GST-tagged COPD (human); assay: pull-down; remark: listed apart in the source
[10] = molecular target: T1, LEPROTL1-HA (human); assay: co-IP; remark: listed apart in the source

## SHH (from UniProt Q15465 24-462)
[1]
  binding: no binding

## GAPDH (from UniProt P04406 1-335)
[1]
  binding: no binding

## EGFR (from UniProt P00533 25-1210) (receptor)
[2]
  binding: no binding (condition: at pH 7.2)
[3]
  binding: no binding (condition: at pH 7.2)
[4]
  binding: binds
[5]
  binding: binds
[1]
  binding: binds

## IGF2R (from UniProt P11717 41-2491) (receptor)
[1]
  binding: binds

## COPG1 (from UniProt Q9Y678 1-874)
[1]
  binding: binds

## COPB1 (from UniProt P53618 1-953)
[1]
  binding: binds

## EGFR-FLAG (from UniProt P00533 25-1210) (receptor)
[1]
  binding: binds

B1: GOLIM4 (protein, UniProt O00461 1-696)
chain: MGNGMCSRKQKRIFQTLLLLTVVFGFLYGAMLYYELQTQLRKAEAVALKYQQHQESLSAQLQVVYEHRSRLEKSLQKERLEHKKAKEDFLVYKLEAQETLNKGRQDSNSRYSALNVQHQMLKSQHEELKKQHSDLEEEHRKQGEDFSRTFNDHKQKYLQLQQEKEQELSKLKETVYNLREENRQLRKAHQDIHTQLQDVKQQHKNLLSEHEQLVVTLEDHKSALAAAQTQVAEYKQLKDTLNRIPSLRKPDPAEQQNVTQVAHSPQGYNTAREKPTREVQEVSRNNDVWQNHEAVPGRAEDTKLYAPTHKEAEFQAPPEPIQQEVERREPEEHQVEEEHRKALEEEEMEQVGQAEHLEEEHDPSPEEQDREWKEQHEQREAANLLEGHARAEVYPSAKPMIKFQSPYEEQLEQQRLAVQQVEEAQQLREHQEALHQQRLQGHLLRQQEQQQQQVAREMALQRQAELEEGRPQHQEQLRQQAHYDAMDNDIVQGAEDQGIQGEEGAYERDNQHQDEAEGDPGNRHEPREQGPREADPESEADRAAVEDINPADDPNNQGEDEFEEAEQVREENLPDENEEQKQSNQKQENTEVEEHLVMAGNPDQQEDNVDEQYQEEAEEEVQEDLTEEKKRELEHNAEETYGENDENTDDKNNDGEEQEVRDDNRPKGREEHYEEEEEEEEDGAAVAEKSHRRAEM
[6]
  binding: binds
[7]
  binding: binds
[8]
  binding: binds
[9]
  binding: binds

B2: B4GALT1 (enzyme, UniProt P15291 1-398)
chain: MRLREPLLSGSAAMPGASLQRACRLLVAVCALHLGVTLVYYLAGRDLSRLPQLVGVSTPLQGGSNSAAAIGQSSGELRTGGARPPPPLGASSQPRPGGDSSPVVDSGPGPASNLTSVPVPHTTALSLPACPEESPLLVGPMLIEFNMPVDLELVAKQNPNVKMGGRYAPRDCVSPHKVAIIIPFRNRQEHLKYWLYYLHPVLQRQQLDYGIYVINQAGDTIFNRAKLLNVGFQEALKDYDYTCFVFSDVDLIPMNDHNAYRCFSQPRHISVAMDKFGFSLPYVQYFGGVSALSKQQFLTINGFPNNYWGWGGEDDDIFNRLVFRGMSISRPNAVVGRCRMIRHSRDKKNEPNPQRFDRIAHTKETMLSDGLNSLTYQVLDVQRYPLYTQITVDIGTPS
[10]
  binding: no binding
